Counter-ions that a name gives are not always drawn. ± gives the standard deviation of the averaged measurements. This is one part of the list. These are raw signals, not scaled to a control.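 The yeast community starts from one strain carrying four plasmids, each with an amino-acid or uracil synthesis gene and a fluorescent protein. Random plasmid loss creates mixed prototroph and auxotroph subpopulations. Cells were fixed and counted by automated confocal fluorescence imaging, and DMSO-treated wells served as the vehicle reference.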
system: Saccharomyces cerevisiae BY4741 SeMeCo community; test: imaged cell count per well (cells); higher = more cells; details: 10 µM; 24 h; SM minimal medium
Method: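 Same SeMeCo high-content imaging drug screen: Selleck FDA-approved drugs at 10 µM, 24 h in SM medium, 384-well plates, 3 replicates.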

SMILES | imaged cell count per well
Nc1nc2c(ncn2COC(CO)CO)c(=O)[nH]1 [Ganciclovir] | 22300 ± 5400
Nc1ccc(C(=O)O)c(O)c1 [4-Aminosalicylic acid] | 31900 ± 2500
Oc1c(Br)cc(Br)c2cccnc12 [Broxyquinoline] | 859 ± 190
CC1=C(C(=O)O)N2C(=O)[C@@H](NC(=O)[C@H](N)c3ccc(O)cc3)[C@H]2SC1 [Cefadroxil hydrate] | 27200 ± 4200
COc1ccccc1OCC(O)CN1CCN(CC(=O)Nc2c(C)cccc2C)CC1 (stereo not drawn) [Ranolazine 2HCl] | 26400 ± 5300
C[C@@H]1CC(=O)NN=C1c1ccc(NN=C(C#N)C#N)cc1 [Levosimendan] | 23100 ± 3400
C[C@]12CC[C@@H]3c4ccc(O)cc4C[C@@H](CCCCCCCCC[S+]([O-])CCCC(F)(F)C(F)(F)F)[C@H]3[C@@H]1CC[C@@H]2O (stereo partly drawn) [Fulvestrant] | 23500 ± 4100
Cc1[nH]cnc1CN1CCc2c(c3ccccc3n2C)C1=O [Alosetron Hydrochloride] | 18700 ± 8100

From the supplement of paper PMC8975748
